Results deposited as PubChem BioAssay AID652243 (Drosophila RNAi Screening Center, 2013)

- Purpose: 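Knock-downs that decrease or increase androgen receptor reporter signal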 (primary screen)
- Cells: Drosophila S2R+ cells
- Knock-down reagent: long dsRNA against Drosophila genes
- Time to read-out: 72 h (48 h, then 24 h hormone)
- Treatment: synthetic androgen R1881 at 10 nM for 24 h
- Measurement: 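Firefly light from an androgen-responsive reporter and Renilla control light per well, raw and unnormalised, for each of two replicates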
- Scale: firefly reporter light: higher = more light from androgen-responsive reporter; Renilla control light: higher = more constitutive control signal (cell number, transfection)
- Hit rule: 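Across duplicate plates, a knock-down whose log firefly/Renilla ratio shifted a set fold down or up from the GFP/LacZ control mean was a hit; the downward cut appears as both 1.5 and 3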
- Meaning of the calls: active = hit: reporter lowered or raised; inactive = no hit
The deposit covers about 24,000 reagents; below is an unselected part of those with a known target gene and a result. Over the whole deposit, 246 (1%) are marked active. 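Plates not normalised; calls are printed but the firefly/Renilla ratio behind them is not deposited; fold cut for lowering reported inconsistently.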 Raw values vary from plate to plate and are shown uncorrected. Unmarked entries are inactive. Names joined by + are all predicted targets of the reagent. Not stated in the record: the amount of reagent.

| gene | dsRNA | firefly reporter light, replicate 1 | firefly reporter light, replicate 2 | Renilla control light, replicate 1 | Renilla control light, replicate 2 |
| --- | --- | --- | --- | --- | --- |
| CG18542 + CG32939 | DRSC15342 | 27589 | 79952 | 1.71e5 | 4.61e5 |
| Teh2 | DRSC08458 | 1.66e5 | 95718 | 1.51e6 | 1.54e6 |
| Teh2 | DRSC29037 | 5.24e5 | 5.59e5 | 1.67e6 | 1.08e6 |
| CG17816 | DRSC15277 | 3.32e5 | 4.11e5 | 1.87e6 | 2.30e6 |
| CG17816 | DRSC29783 | 6.09e5 | 5.55e5 | 1.54e6 | 1.17e6 |
| CG13171 | DRSC06299 | 2.77e5 | 2.46e5 | 2.03e6 | 2.14e6 |
| CG15082 | DRSC06513 | 1.00e5 | 1.17e5 | 1.22e6 | 1.67e6 |
| CG15082 | DRSC27197 | 5.22e5 | 3.63e5 | 6.50e5 | 5.98e5 |
| CG13083 | DRSC02187 | 66854 | 77367 | 1.05e6 | 8.76e5 |
| CG13083 | DRSC28424 | 2.83e5 | 3.86e5 | 3.57e5 | 7.69e5 |
| RalGPS | DRSC06941 | 1.12e6 | 9.10e5 | 1.69e6 | 1.53e6 |
| RalGPS | DRSC27139 | 4.98e5 | 4.00e5 | 4.90e5 | 4.25e5 |
| CG13288 | DRSC09962 | 1.58e5 | 1.88e5 | 3.10e6 | 2.66e6 |
| CG14265 | DRSC18591 | 2.50e5 | 2.34e5 | 3.68e6 | 3.59e6 |
| CG14265 | DRSC29212 | 5.12e5 | 5.81e5 | 1.07e6 | 9.98e5 |
| Gs1 | DRSC00753 | 1.43e6 | 9.34e5 | 5.24e6 | 2.57e6 |
| Gs1 | DRSC28916 | 2.82e5 | 3.76e5 | 1.19e6 | 1.22e6 |
| CG16779 | DRSC15153 | 1.14e5 | 1.78e5 | 2.74e6 | 1.95e6 |
| Or13a | DRSC20265 | 4.76e5 | 4.52e5 | 3.68e6 | 2.49e6 |
| CG17298 | DRSC15221 | 2.86e5 | 2.46e5 | 3.16e6 | 2.91e6 |
| CG17298 | DRSC27897 | 5.73e5 | 3.01e5 | 1.44e6 | 1.15e6 |
| CG14618 | DRSC20631 | 2.43e5 | 1.74e5 | 6.58e5 | 3.20e5 |
| Topors | DRSC06531 | 7.00e5 | 6.43e5 | 1.00e6 | 8.59e5 |
| CG1090 | DRSC12150 | 64821 | 86252 | 6.83e5 | 5.87e5 |
| CG1090 | DRSC21604 | 1.11e6 | 9.51e5 | 2.30e6 | 2.51e6 |
| robl | DRSC07674 | 1.20e5 | 1.60e5 | 1.90e6 | 1.90e6 |
| sty | DRSC22994 | 5.45e5 | 6.15e5 | 1.38e6 | 1.78e6 |
| sty | DRSC25779 | 1.90e5 | 2.54e5 | 5.58e5 | 3.92e5 |
| eg | DRSC11885 | 1.89e5 | 2.76e5 | 3.11e6 | 3.11e6 |
| eg | DRSC26147 | 3.26e5 | 3.06e5 | 6.47e5 | 6.46e5 |
| CG7202 | DRSC11818 | 2.93e5 | 2.49e5 | 3.00e6 | 3.35e6 |
| CG7202 | DRSC25884 | 3.56e5 | 4.01e5 | 9.57e5 | 9.64e5 |
| Caper | DRSC02137 | 8.18e5 | 7.55e5 | 1.18e6 | 1.70e6 |
| CG13282 | DRSC02254 | 76367 | 1.04e5 | 1.36e6 | 1.32e6 |
| yellow-d | DRSC04589 | 3.55e5 | 3.50e5 | 2.00e6 | 1.95e6 |
| yellow-d | DRSC26933 | 3.90e5 | 3.00e5 | 8.24e5 | 4.04e5 |
| cpa | DRSC04080 | 9.76e5 | 7.31e5 | 1.68e6 | 1.99e6 |
| Taf2 | DRSC11298 | 6.88e5 | 4.58e5 | 1.07e6 | 1.30e6 |
| Taf2 | DRSC26215 | 1.55e5 | 1.19e5 | 5.17e5 | 4.89e5 |
| Mtk | DRSC07475 | 1.11e5 | 1.13e5 | 1.93e6 | 1.93e6 |
| Mtk | DRSC29753 | 3.58e5 | 3.35e5 | 1.21e6 | 1.35e6 |

3 successive records already listed:
| gene | dsRNA | firefly reporter light, replicate 1 | firefly reporter light, replicate 2 | Renilla control light, replicate 1 | Renilla control light, replicate 2 |
| --- | --- | --- | --- | --- | --- |
| eg | DRSC11885 | 1.89e5 | 2.76e5 | 3.11e6 | 3.11e6 |
| eg | DRSC26147 | 3.26e5 | 3.06e5 | 6.47e5 | 6.46e5 |
| CG7202 | DRSC11818 | 2.93e5 | 2.49e5 | 3.00e6 | 3.35e6 |
